No constants are given. Whether binding was seen depends on the method and setting. In cells and extracts the contact can be indirect. These calls come from enrichment with a bait or labelling near it, and not all partners need be listed. Where a sequence is shown, tags or fusion partners need not be part of it.
Biological target: T1, LSD-LIKE 1 (LDL1), FLAG tagged, expressed under its own promoter (Arabidopsis thaliana) (UniProt Q8VXV7)
T1 sequence: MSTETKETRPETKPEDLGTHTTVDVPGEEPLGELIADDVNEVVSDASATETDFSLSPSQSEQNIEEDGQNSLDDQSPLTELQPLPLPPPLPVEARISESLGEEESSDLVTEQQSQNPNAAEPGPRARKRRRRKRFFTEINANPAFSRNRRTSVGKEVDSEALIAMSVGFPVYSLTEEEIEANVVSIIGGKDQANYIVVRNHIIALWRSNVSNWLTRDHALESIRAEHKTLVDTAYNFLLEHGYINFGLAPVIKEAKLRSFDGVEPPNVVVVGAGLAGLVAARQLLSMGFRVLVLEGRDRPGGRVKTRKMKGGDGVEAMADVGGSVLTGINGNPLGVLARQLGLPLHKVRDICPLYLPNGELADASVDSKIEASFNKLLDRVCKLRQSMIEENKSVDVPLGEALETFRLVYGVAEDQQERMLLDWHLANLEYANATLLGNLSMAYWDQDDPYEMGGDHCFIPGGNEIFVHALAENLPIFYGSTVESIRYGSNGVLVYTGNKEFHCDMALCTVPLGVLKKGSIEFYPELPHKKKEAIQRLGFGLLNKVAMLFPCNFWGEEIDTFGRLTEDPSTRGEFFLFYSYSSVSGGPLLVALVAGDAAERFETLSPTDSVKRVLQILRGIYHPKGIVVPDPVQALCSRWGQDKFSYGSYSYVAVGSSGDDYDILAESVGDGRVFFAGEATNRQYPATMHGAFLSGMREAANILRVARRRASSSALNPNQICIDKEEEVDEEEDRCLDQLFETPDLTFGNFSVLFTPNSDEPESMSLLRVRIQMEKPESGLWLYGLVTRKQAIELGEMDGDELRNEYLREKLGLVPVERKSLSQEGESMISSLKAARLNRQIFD
Test: affinity purification with mass spectrometry; FLAG affinity purification of LDL1-3xFLAG from ~15 g inflorescence tissue of transgenic plants, Col-0 as control; lysis buffer 50 mM Tris pH 7.5, 300 mM NaCl, 5 mM MgCl2, 5% glycerol, 0.02% NP-40, 0.5 mM DTT; two replicate purifications

B1: SU(VAR)3-9 RELATED 5 (SUVR5) (protein, UniProt O64827 1-1382)
chain: MEVKMDELVLDVDVEEATGSELLVKSEPEADLNAVKSSTDLVTVTGPIGKNGEGESSPSEPKWLQQDEPIALWVKWRGKWQAGIRCAKADWPLTTLRGKPTHDRKKYCVIFFPHTKNYSWADMQLVRSINEFPDPIAYKSHKIGLKLVKDLTAARRYIMRKLTVGMFNIVDQFPSEVVSEAARDIIIWKEFAMEATRSTSYHDLGIMLVKLHSMILQRYMDPIWLENSFPLWVQKCNNAVNAESIELLNEEFDNCIKWNEVKSLSESPMQPMLLSEWKTWKHDIAKWFSISRRGVGEIAQPDSKSVFNSDVQASRKRPKLEIRRAETTNATHMESDTSPQGLSAIDSEFFSSRGNTNSPETMKEENPVMNTPENGLDLWDGIVVEAGGSQFMKTKETNGLSHPQDQHINESVLKKPFGSGNKSQQCIAFIESKGRQCVRWANEGDVYCCVHLASRFTTKSMKNEGSPAVEAPMCGGVTVLGTKCKHRSLPGFLYCKKHRPHTGMVKPDDSSSFLVKRKVSEIMSTLETNQCQDLVPFGEPEGPSFEKQEPHGATSFTEMFEHCSQEDNLCIGSCSENSYISCSEFSTKHSLYCEQHLPNWLKRARNGKSRIISKEVFVDLLRGCLSREEKLALHQACDIFYKLFKSVLSLRNSVPMEVQIDWAKTEASRNADAGVGEFLMKLVSNERERLTRIWGFATGADEEDVSLSEYPNRLLAITNTCDDDDDKEKWSFSGFACAICLDSFVRRKLLEIHVEERHHVQFAEKCMLLQCIPCGSHFGDKEQLLVHVQAVHPSECKSLTVASECNLTNGEFSQKPEAGSSQIVVSQNNENTSGVHKFVCKFCGLKFNLLPDLGRHHQAEHMGPSLVGSRGPKKGIRFNTYRMKSGRLSRPNKFKKSLGAVSYRIRNRAGVNMKRRMQGSKSLGTEGNTEAGVSPPLDDSRNFDGVTDAHCSVVSDILLSKVQKAKHRPNNLDILSAARSACCRVSVETSLEAKFGDLPDRIYLKAAKLCGEQGVQVQWHQEGYICSNGCKPVKDPNLLHPLIPRQENDRFGIAVDAGQHSNIELEVDECHCIMEAHHFSKRPFGNTAVLCKDISFGKESVPICVVDDDLWNSEKPYEMPWECFTYVTNSILHPSMDLVKENLQLRCSCRSSVCSPVTCDHVYLFGNDFEDARDIYGKSMRCRFPYDGKQRIILEEGYPVYECNKFCGCSRTCQNRVLQNGIRAKLEVFRTESKGWGLRACEHILRGTFVCEYIGEVLDQQEANKRRNQYGNGDCSYILDIDANINDIGRLMEEELDYAIDATTHGNISRFINHSCSPNLVNHQVIVESMESPLAHIGLYASMDIAAGEEITRDYGRRPVPSEQENEHPCHCKATNCRGLLS
binding: binds

Source: publication PMC3469426
